Test results: patent US7022484B2, “Methods for treating neuropathological states and neurogenic inflammatory states and methods for identifying compounds useful therein” (Board of Regents, The University of Texas System, priority 2000, dated 2006)

Assay: In vitro transfer of drug across the microdialysis membrane
Settings: in vitro estimate

Question: For `O=c1c(-c2ccc(O)cc2)coc2cc(O)cc(O)c12` [Genistein, 5,7-Dihydroxy-3-(4-hydroxyphenyl)-4H-1-benzopyran-4-one; 4′,5,7-trihydroxy-isoflavone], which “drug transferred across the microdialysis membrane” value is on record?
Answer: ≤ 5.6%
